Some of the results follow.
What was measured:
Test in all cases: log2 fold change, soluble protein after heating vs DMSO (PISA); higher = thermal stabilisation; K562 lysate, 10 uM; active = over 0.2 and 3.5 SD of the protein, either way, in both replicates (recomputed)
crizotinib = compound: C[C@@H](Oc1cc(-c2cnn(C3CCNCC3)c2)cnc1N)c1c(Cl)ccc(F)c1Cl [crizotinib]
In short: (§1)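 Following dounce homogenisation of K562 pellets in PBS pH 7.4 with 1 mM MgCl2, crude extract at 1 mg/mL protein was incubated for 30 min with 10 μM compound. Aliquots were then heated for 3 min over 48°C-58°C and pooled, NP-40 was added to 0.5% at 4°C, and soluble protein was recovered as the supernatant at 21,000xg for 90 min. Channel-sum-equalised TMTpro 16plex LC-MS/MS quantified this protein. Each value, from duplicates, is a log-two fold change in thermal stability relative to solvent controls.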

Amino acid sequences for entries named in this document (tags omitted). A change or cut given only in a name is not applied to a line headed by its entry.
UniProt Q96Q45: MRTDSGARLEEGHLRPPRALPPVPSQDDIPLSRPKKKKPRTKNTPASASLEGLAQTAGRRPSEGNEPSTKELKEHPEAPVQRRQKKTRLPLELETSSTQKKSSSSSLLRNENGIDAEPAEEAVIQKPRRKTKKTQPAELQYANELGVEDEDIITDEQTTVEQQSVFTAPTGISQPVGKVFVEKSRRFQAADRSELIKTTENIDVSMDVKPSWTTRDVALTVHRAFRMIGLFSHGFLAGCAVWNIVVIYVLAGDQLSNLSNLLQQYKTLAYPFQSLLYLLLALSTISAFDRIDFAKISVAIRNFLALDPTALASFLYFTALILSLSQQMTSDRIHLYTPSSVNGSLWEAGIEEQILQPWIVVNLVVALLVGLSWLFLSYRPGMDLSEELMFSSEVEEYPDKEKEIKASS
UniProt P41273, whole entry, looked up: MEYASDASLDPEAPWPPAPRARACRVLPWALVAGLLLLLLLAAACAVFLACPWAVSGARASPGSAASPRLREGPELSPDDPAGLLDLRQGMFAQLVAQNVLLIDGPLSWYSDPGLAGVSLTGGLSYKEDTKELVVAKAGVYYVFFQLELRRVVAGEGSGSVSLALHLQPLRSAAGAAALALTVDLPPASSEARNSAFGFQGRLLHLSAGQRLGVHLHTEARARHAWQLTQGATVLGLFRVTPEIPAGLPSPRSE
UniProt Q9BSE2: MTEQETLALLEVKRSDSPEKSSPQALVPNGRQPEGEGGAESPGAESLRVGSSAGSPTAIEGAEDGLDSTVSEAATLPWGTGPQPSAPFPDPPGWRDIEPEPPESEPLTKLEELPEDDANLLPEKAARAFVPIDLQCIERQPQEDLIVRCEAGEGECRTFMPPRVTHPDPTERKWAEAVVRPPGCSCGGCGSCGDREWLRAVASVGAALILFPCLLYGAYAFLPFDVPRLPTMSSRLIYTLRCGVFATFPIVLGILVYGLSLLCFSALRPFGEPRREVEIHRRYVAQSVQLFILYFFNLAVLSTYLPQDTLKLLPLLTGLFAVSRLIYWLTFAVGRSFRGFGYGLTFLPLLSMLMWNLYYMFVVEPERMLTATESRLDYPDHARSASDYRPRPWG
UniProt Q9NWD8: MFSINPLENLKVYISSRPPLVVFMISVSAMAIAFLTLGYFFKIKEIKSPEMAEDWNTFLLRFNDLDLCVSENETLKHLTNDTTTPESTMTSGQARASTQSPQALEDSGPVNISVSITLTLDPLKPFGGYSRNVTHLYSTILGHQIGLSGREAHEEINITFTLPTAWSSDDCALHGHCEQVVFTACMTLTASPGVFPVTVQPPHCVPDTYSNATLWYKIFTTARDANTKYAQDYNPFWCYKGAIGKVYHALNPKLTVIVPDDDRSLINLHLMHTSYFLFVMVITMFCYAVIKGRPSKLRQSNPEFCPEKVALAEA
UniProt Q86W33: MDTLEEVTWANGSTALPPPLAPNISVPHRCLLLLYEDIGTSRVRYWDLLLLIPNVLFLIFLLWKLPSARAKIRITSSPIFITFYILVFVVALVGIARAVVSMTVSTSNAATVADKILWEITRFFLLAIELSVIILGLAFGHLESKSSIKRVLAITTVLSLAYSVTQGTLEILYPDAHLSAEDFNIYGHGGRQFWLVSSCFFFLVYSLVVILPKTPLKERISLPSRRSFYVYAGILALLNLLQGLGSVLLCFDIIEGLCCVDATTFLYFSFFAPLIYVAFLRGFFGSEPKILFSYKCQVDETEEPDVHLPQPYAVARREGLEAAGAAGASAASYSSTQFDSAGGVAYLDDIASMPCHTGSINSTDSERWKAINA
UniProt P02585, whole entry, looked up: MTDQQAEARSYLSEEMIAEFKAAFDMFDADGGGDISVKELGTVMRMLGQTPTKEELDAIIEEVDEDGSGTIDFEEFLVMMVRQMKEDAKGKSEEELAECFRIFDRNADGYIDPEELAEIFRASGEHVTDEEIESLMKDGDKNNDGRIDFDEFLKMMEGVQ
UniProt Q13829: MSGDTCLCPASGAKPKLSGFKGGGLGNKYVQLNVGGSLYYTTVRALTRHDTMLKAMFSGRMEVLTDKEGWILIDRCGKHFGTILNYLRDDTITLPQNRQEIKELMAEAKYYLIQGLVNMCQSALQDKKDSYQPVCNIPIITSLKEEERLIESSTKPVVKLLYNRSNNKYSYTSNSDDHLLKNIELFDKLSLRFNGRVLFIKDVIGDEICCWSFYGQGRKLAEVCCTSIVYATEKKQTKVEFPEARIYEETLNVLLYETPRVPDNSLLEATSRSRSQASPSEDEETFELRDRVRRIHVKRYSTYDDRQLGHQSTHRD
UniProt Q9BRR3: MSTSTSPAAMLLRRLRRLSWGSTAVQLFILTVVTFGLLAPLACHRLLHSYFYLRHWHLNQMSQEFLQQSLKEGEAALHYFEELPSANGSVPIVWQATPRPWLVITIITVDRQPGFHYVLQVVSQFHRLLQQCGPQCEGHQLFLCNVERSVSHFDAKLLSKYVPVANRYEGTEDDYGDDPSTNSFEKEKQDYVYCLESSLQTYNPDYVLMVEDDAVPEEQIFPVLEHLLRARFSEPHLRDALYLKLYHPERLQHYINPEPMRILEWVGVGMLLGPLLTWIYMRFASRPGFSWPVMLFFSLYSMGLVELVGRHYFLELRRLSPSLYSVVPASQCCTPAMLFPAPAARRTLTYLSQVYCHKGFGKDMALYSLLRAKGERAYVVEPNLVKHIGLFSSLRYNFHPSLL
UniProt O43399: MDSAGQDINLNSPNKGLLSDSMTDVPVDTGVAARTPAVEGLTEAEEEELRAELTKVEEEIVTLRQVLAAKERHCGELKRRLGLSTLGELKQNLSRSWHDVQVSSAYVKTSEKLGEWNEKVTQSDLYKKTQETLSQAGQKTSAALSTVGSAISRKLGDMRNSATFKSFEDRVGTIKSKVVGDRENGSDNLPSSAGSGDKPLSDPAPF
UniProt Q9BXS4: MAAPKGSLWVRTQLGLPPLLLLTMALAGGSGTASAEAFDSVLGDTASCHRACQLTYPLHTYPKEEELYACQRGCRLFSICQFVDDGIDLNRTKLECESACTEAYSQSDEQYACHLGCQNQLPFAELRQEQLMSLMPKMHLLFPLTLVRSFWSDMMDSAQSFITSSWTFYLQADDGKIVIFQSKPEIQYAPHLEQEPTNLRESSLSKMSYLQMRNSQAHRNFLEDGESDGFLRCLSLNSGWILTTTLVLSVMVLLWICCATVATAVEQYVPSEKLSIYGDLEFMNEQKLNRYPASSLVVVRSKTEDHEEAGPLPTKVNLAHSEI
UniProt O95271: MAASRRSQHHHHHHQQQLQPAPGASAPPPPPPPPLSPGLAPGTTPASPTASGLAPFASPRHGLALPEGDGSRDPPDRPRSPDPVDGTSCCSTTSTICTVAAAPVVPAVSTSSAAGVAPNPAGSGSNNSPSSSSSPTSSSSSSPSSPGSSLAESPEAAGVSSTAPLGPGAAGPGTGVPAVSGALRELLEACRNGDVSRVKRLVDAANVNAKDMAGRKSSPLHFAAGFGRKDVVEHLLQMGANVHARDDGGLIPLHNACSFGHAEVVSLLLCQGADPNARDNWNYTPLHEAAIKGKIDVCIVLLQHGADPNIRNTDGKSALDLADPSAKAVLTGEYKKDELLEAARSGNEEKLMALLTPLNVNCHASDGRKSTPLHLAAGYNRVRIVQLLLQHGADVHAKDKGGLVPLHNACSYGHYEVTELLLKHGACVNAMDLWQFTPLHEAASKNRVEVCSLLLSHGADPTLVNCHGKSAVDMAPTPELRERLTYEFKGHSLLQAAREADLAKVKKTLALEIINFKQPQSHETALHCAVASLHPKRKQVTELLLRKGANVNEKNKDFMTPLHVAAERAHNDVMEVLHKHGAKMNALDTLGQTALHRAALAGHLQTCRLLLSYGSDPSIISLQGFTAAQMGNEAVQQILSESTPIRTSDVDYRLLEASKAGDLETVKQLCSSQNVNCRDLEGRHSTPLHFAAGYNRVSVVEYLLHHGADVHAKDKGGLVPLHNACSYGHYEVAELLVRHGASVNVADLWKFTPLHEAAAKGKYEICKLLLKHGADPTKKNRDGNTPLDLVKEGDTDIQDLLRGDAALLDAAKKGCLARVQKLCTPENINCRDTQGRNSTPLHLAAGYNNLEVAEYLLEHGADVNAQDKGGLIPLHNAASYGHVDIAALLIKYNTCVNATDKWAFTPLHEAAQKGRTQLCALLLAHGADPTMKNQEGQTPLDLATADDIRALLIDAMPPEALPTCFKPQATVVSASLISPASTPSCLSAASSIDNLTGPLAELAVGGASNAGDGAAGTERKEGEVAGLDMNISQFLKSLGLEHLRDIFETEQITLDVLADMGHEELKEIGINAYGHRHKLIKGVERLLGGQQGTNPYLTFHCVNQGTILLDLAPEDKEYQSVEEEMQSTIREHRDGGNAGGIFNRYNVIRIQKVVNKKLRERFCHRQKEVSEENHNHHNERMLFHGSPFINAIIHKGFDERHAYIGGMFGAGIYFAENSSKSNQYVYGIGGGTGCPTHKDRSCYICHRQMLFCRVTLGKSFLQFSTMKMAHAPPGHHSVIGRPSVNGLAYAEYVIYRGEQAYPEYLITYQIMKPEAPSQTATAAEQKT
UniProt Q9NWH2: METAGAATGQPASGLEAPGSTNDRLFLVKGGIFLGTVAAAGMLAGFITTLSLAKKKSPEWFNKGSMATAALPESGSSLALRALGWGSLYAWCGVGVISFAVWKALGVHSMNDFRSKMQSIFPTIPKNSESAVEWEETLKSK
UniProt Q4KMQ1: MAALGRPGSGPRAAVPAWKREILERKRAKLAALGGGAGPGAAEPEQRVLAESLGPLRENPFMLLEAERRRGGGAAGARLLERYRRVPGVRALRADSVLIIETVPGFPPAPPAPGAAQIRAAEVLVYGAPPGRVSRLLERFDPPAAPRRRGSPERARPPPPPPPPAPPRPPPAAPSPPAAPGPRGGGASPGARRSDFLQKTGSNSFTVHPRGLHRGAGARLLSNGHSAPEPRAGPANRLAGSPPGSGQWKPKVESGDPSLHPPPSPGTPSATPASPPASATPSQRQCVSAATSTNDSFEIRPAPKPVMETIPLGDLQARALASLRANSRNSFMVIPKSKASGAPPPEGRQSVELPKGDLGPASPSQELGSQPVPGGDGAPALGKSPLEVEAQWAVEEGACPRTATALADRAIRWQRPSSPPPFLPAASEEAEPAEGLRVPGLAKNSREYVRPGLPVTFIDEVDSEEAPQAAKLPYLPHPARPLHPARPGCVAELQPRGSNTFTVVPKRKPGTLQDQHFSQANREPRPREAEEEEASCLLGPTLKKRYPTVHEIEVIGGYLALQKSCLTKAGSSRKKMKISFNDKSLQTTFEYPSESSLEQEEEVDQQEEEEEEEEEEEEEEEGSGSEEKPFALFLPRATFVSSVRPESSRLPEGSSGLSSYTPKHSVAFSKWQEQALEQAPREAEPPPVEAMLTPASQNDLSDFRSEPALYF
UniProt Q13641: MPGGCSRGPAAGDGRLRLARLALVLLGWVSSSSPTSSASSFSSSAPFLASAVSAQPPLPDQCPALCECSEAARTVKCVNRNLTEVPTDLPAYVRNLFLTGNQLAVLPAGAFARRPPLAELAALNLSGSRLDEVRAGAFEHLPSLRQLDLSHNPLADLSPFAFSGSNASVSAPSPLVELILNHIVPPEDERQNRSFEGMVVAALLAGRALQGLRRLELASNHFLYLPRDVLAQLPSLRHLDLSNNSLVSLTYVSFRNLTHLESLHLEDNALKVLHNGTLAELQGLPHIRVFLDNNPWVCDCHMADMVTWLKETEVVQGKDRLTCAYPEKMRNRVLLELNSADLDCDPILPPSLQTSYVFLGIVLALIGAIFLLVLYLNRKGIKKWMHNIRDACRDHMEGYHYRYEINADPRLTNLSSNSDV
UniProt O95807: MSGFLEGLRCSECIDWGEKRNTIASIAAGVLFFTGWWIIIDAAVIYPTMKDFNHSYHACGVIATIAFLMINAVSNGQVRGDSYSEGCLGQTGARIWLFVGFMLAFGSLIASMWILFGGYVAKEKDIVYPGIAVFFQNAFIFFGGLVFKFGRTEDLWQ
UniProt Q0VDI3: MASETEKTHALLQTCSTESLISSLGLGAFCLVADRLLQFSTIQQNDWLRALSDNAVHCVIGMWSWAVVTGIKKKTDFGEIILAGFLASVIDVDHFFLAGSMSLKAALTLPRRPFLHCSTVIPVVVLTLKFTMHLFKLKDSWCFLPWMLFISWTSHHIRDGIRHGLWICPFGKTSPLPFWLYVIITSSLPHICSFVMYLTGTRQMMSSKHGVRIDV
UniProt Q5T292: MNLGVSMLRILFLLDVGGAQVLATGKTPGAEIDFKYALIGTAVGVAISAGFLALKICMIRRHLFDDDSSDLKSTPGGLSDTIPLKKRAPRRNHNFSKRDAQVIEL
UniProt Q9H1E5: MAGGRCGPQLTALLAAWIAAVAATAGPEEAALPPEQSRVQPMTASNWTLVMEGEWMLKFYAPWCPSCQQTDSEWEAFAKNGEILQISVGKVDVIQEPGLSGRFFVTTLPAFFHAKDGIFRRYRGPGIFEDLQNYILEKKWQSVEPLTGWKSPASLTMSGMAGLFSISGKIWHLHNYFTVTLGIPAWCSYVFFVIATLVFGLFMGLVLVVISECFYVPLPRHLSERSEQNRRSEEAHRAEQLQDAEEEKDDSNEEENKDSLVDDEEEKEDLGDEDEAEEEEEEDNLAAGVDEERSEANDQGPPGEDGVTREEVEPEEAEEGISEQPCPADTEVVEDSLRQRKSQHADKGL

doramapimod = compound: Cc1ccc(-n2nc(C(C)(C)C)cc2NC(=O)Nc2ccc(OCCN3CCOCC3)c3ccccc23)cc1 [doramapimod]
In short: as §1

quisinostat = compound: Cn1cc(CNCC2CCN(c3ncc(C(=O)NO)cn3)CC2)c2ccccc21 [quisinostat]
In short: as §1

[1] = compound: NC(=O)Nc1cc(-c2cccc(F)c2)sc1C(=O)N[C@H]1CCCNC1
In short: as §1

lapatinib = compound: CS(=O)(=O)CCNCc1ccc(-c2ccc3ncnc(Nc4ccc(OCc5cccc(F)c5)c(Cl)c4)c3c2)o1 [lapatinib]
In short: as §1

[2] = compound: C[C@H](C1=CC=C(C=C1)C(=O)NC2=C3C=CNC3=NC=C2)N
In short: as §1

duvelisib = compound: C[C@H](Nc1ncnc2nc[nH]c12)c1cc2cccc(Cl)c2c(=O)n1-c1ccccc1 [duvelisib]
In short: as §1

gandotinib = compound: Cc1cc(Nc2cc(CN3CCOCC3)c3nc(C)c(Cc4ccc(Cl)cc4F)n3n2)n[nH]1 [gandotinib]
In short: as §1

[3] = compound: Cc1cccc(CC(=O)N2CCc3c2ccc(-c2cn(C)c4ncnc(N)c24)c3F)n1
In short: as §1

nilotinib = compound: Cc1cn(-c2cc(NC(=O)c3ccc(C)c(Nc4nccc(-c5cccnc5)n4)c3)cc(C(F)(F)F)c2)cn1 [nilotinib]
In short: as §1

[4] = compound: Cc1nc(Nc2n[nH]c3c2CN(C(=O)N[C@H](CN(C)C)c2ccccc2)C3(C)C)c2sccc2n1
In short: as §1

dasatinib = compound: Cc1nc(Nc2ncc(C(=O)Nc3c(C)cccc3Cl)s2)cc(N2CCN(CCO)CC2)n1 [dasatinib]
In short: as §1

[5] = compound: Cc1ncc(-c2ccnc(Nc3ccc(S(C)(=O)=O)cc3)n2)n1C(C)C
In short: as §1

[6] = compound: Cn1cc(-c2ccc3c(c2)CCN3C(=O)Cc2cccc(C(F)(F)F)c2)c2c(N)ncnc21
In short: as §1

tipifarnib = compound: Cn1cncc1[C@@](N)(c1ccc(Cl)cc1)c1ccc2c(c1)c(-c1cccc(Cl)c1)cc(=O)n2C [tipifarnib]
In short: as §1

[7] = compound: NC(=O)c1cnc(N[C@@H]2CCCC[C@@H]2N)nc1Nc1cccc(-n2nccn2)c1
In short: as §1

[8] = compound: NC1(c2ccc(-c3nc4ccn5c(=O)[nH]nc5c4cc3-c3ccccc3)cc2)CCC1
In short: as §1

pictilisib = compound: CS(=O)(=O)N1CCN(Cc2cc3nc(-c4cccc5[nH]ncc45)nc(N4CCOCC4)c3s2)CC1 [pictilisib]
In short: as §1

bafetinib = compound: Cc1ccc(NC(=O)c2ccc(CN3CC[C@H](N(C)C)C3)c(C(F)(F)F)c2)cc1Nc1nccc(-c2cncnc2)n1 [bafetinib]
In short: as §1

tozasertib = compound: Cc1cc(Nc2cc(N3CCN(C)CC3)nc(Sc3ccc(NC(=O)C4CC4)cc3)n2)n[nH]1 [tozasertib]
In short: as §1

Measured: log2 fold change

TMEM250 (UniProt H0YL14)
inactive: crizotinib -0.037 | doramapimod -0.453 | quisinostat -0.582 | [1] 0.044

TMEM237 isoform 3 (UniProt Q96Q45)
inactive: lapatinib -0.131 | crizotinib -0.103 | [2] -0.063 | duvelisib 0.058 | gandotinib 0.147 | doramapimod -0.041 | [3] 0.12 | nilotinib 0.02 | [4] -0.015 | dasatinib -0.035 | [5] 0.07 | [6] -0.035 | quisinostat 0.14 | tipifarnib 0.282 | [1] -0.065 | [7] 0.05

TMEM35B (UniProt Q8NCS4)
inactive: lapatinib -0.011 | crizotinib -0.101 | doramapimod -0.149 | quisinostat 0.075 | [1] 0.12 | [7] -0.067 | [8] -0.06

TNFSF9 (UniProt P41273)
inactive: [2] 0.138 | gandotinib 0.058 | [3] 0.032

TNNC1 (UniProt P63316)
inactive: pictilisib -2.39 | [2] -1.58 | gandotinib 0.228 | bafetinib 0.267 | [3] 0.565

TMEM268 isoform 3 (UniProt Q5VZI3)
inactive: crizotinib -0.051 | [2] 0.181 | duvelisib 0.251 | gandotinib 0.02 | tozasertib -0.075 | doramapimod -0.032 | [3] -0.188 | dasatinib 0.097 | [6] -0.011 | quisinostat 0.058 | [1] 0.02

TMEM79 (UniProt Q9BSE2)
inactive: nilotinib -0.146 | [4] 0.008 | [5] 0.134 | tipifarnib -0.055

TMEM248 (UniProt Q9NWD8)
inactive: crizotinib -0.107 | [2] 0.051 | duvelisib 0.021 | gandotinib 0.045 | tozasertib 0.002 | doramapimod 0.068 | [3] 0.038 | nilotinib 0.107 | [4] -0.052 | dasatinib -0.053 | [5] 0.059 | [6] 0.048 | quisinostat 0.096 | tipifarnib 0.007 | [1] -0.045 | [8] 0.096

TPRG1L (UniProt Q5T0D9)
inactive: lapatinib 0 | crizotinib -0.098 | [2] -0.019 | duvelisib 0.079 | gandotinib 0.077 | tozasertib -0.062 | doramapimod 0.047 | [3] 0.132 | nilotinib 0.127 | [4] 0.096 | dasatinib -0.06 | [5] -0.153 | [6] 0.055 | quisinostat -0.104 | tipifarnib -0.771 | [1] -0.017 | [7] 0.027 | [8] -0.036

TPRA1 (UniProt Q86W33)
inactive: lapatinib 0.069 | crizotinib -0.008 | [2] 0.224 | duvelisib 0.103 | gandotinib -0.007 | doramapimod 0.016 | [3] -0.115 | dasatinib 0.076 | [6] -0.012 | quisinostat -0.068 | [1] 0.05 | [7] 0.066 | [8] 0.103

TNNC2 (UniProt P02585)
inactive: lapatinib 0.018 | crizotinib 0.099 | [2] -0.181 | duvelisib -0.009 | gandotinib -0.004 | tozasertib 0.011 | doramapimod -0.038 | [3] 0.018 | nilotinib 0.011 | [4] 0.027 | dasatinib 0.007 | [5] 0.025 | [6] 0.005 | quisinostat -0.051 | tipifarnib 0.095 | [1] -0.002 | [7] -0.027 | [8] 0.004

TNFAIP1 (UniProt Q13829)
inactive: pictilisib -0.177 | [2] -0.049 | gandotinib 0.139 | bafetinib -0.331 | [3] 0.165

TMEM246 (UniProt Q9BRR3)
inactive: pictilisib 0.012 | bafetinib -0.145 | [8] -0.051

TMEM19 (UniProt Q96HH6)
inactive: lapatinib -0.008 | crizotinib 0.067 | tozasertib 0.115 | doramapimod 0.021 | quisinostat 0.151 | [1] -0.013 | [7] 0.021 | [8] 0.057

TPD52L2 isoform 3 (UniProt O43399)
inactive: pictilisib -0.112 | [2] -0.155 | gandotinib 0.377 | bafetinib -0.102 | [3] -0.124 | nilotinib 0.055 | [4] 0.035 | [5] 0.008 | tipifarnib 0.134 | [8] 0.074

TMEM59 (UniProt Q9BXS4)
inactive: [2] 0.036 | gandotinib 0.021 | [3] -0.027

TNKS (UniProt O95271)
active: [2] -0.302
inactive: lapatinib -0.085 | crizotinib -0.031 | duvelisib -0.027 | gandotinib 0.038 | tozasertib 0.073 | doramapimod -0.013 | [3] 0.107 | nilotinib -0.053 | [4] -0.016 | dasatinib 0.081 | [5] 0.04 | [6] -0.051 | quisinostat -0.021 | tipifarnib 0.103 | [1] 0.032 | [7] 0.088 | [8] 0.028

TMEM242 (UniProt Q9NWH2)
inactive: pictilisib 0.02 | crizotinib 0.031 | [2] -0.129 | duvelisib 0.023 | gandotinib 0.034 | tozasertib -0.073 | doramapimod -0.058 | bafetinib 0.084 | [3] 0.002 | nilotinib -0.062 | [4] -0.101 | dasatinib -0.086 | [5] 0.171 | [6] -0.015 | quisinostat 0.152 | tipifarnib 0.004 | [1] -0.004

TPRN (UniProt Q4KMQ1)
inactive: crizotinib -0.051 | duvelisib -0.02 | doramapimod 0.167 | dasatinib 0.053 | [6] -0.037 | quisinostat 0.02 | [1] 0.002

TPBG (UniProt Q13641)
inactive: crizotinib -0.072 | duvelisib -0.033 | tozasertib -0.079 | doramapimod -0.154 | dasatinib 0.037 | [6] -0.075 | quisinostat -0.275 | [1] 0.026 | [8] -0.039

TMEM98 (UniProt Q9Y2Y6)
inactive: [2] 0.004 | gandotinib -0.073 | [3] 0.051 | nilotinib 0.043 | [4] -0.216 | [5] -0.228 | tipifarnib -0.022

TMEM50A (UniProt O95807)
inactive: tozasertib 0.237

TOMM6 (UniProt Q96B49)
inactive: pictilisib -0.1 | [2] 0.235 | duvelisib -0.009 | gandotinib -0.194 | tozasertib 0.1 | bafetinib 0.084 | [3] -0.116 | dasatinib 0.19 | [6] 0.107 | [8] 0.061

TMEM267 (UniProt Q0VDI3)
inactive: pictilisib -0.063 | crizotinib 0.017 | [2] -0.013 | gandotinib 0.251 | doramapimod 0.144 | bafetinib 0.019 | [3] 0 | nilotinib 0.184 | [4] 0.196 | [5] -0.105 | quisinostat -0.246 | tipifarnib 0 | [1] -0.269 | [8] -0.104

TMEM273 isoform 2 (UniProt Q5T292)
inactive: pictilisib -0.056 | crizotinib -0.089 | doramapimod 0.05 | bafetinib -0.01 | quisinostat -0.089 | [1] 0.026 | [8] -0.084

TOPAZ1 (UniProt Q8N9V7)
inactive: lapatinib 0.123 | pictilisib 0.087 | tozasertib 0.038 | bafetinib -0.254 | [7] 0.066 | [8] -0.021

Looked up one by one from the entries so far (2):
TOPAZ1 (UniProt Q8N9V7)
inactive: lapatinib 0.123 | pictilisib 0.087 | tozasertib 0.038 | bafetinib -0.254 | [7] 0.066 | [8] -0.021

TMEM267 (UniProt Q0VDI3)
inactive: pictilisib -0.063 | crizotinib 0.017 | [2] -0.013 | gandotinib 0.251 | doramapimod 0.144 | bafetinib 0.019 | [3] 0 | nilotinib 0.184 | [4] 0.196 | [5] -0.105 | quisinostat -0.246 | tipifarnib 0 | [1] -0.269 | [8] -0.104

More records follow.

TMX4 (UniProt Q9H1E5)
inactive: pictilisib -0.028 | crizotinib 0.002 | [2] -0.034 | duvelisib 0.025 | gandotinib -0.025 | tozasertib -0.052 | doramapimod -0.107 | bafetinib -0.044 | [3] 0.134 | nilotinib -0.187 | [4] -0.2 | dasatinib -0.004 | [5] -0.092 | [6] 0.077 | quisinostat 0.044 | tipifarnib 0.088 | [1] -0.072 | [8] 0.024
